No constants are given. Whether binding was seen depends on the method and setting. Binding seen in cells or lysates may run through a third protein. Some results given as binding are weak or reduced against the parent protein; the word gives no strength.
target: MK2 (mitogen-activated protein kinase-activated protein kinase 2), endogenous in HEK293 cells (human (endogenous in HEK293)) (UniProt P49137); assay: co-IP; HEK293 lysates, endogenous proteins; immunoprecipitation with MK2 antiserum; blots with PDE4B, PDE4C and PDE4D antisera; bead-only control

The chains behind the UniProt entries cited, without tags or fusion partners. Where a name states a change or a piece, a line headed by the entry shows the natural chain unless it says otherwise. A line that says so, or that is headed by a name, gives the form on record, which may keep a tag or linker. Residues count along the entry.
UniProt P49137: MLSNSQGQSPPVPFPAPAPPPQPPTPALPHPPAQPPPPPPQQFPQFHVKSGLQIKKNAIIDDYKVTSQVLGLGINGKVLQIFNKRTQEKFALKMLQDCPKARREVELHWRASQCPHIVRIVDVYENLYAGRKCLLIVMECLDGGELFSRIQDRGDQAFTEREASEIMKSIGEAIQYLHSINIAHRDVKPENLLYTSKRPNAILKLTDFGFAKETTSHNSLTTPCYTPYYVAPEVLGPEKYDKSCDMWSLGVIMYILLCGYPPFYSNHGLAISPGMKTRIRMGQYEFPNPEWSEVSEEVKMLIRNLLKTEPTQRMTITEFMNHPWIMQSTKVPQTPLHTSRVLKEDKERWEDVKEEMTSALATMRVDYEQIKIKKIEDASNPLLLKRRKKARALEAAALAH
UniProt Q08493, residues 107-712: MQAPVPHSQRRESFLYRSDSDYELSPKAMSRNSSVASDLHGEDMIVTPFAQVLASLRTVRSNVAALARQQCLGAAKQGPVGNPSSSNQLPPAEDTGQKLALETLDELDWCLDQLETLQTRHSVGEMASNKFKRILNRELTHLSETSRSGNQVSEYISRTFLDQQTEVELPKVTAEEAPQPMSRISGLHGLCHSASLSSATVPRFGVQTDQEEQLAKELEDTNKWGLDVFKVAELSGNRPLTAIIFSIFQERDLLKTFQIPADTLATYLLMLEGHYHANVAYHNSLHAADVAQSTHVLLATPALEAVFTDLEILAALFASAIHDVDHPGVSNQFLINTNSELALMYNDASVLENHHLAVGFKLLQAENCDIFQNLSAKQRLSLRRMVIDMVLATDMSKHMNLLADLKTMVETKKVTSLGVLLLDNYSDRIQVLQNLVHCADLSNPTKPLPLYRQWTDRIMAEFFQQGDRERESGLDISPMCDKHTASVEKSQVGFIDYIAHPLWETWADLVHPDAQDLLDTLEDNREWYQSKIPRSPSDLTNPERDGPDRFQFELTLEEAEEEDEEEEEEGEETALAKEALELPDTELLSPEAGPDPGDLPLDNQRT
PDE4D9, endogenous long PDE4D isoform (Q08499-10, form named): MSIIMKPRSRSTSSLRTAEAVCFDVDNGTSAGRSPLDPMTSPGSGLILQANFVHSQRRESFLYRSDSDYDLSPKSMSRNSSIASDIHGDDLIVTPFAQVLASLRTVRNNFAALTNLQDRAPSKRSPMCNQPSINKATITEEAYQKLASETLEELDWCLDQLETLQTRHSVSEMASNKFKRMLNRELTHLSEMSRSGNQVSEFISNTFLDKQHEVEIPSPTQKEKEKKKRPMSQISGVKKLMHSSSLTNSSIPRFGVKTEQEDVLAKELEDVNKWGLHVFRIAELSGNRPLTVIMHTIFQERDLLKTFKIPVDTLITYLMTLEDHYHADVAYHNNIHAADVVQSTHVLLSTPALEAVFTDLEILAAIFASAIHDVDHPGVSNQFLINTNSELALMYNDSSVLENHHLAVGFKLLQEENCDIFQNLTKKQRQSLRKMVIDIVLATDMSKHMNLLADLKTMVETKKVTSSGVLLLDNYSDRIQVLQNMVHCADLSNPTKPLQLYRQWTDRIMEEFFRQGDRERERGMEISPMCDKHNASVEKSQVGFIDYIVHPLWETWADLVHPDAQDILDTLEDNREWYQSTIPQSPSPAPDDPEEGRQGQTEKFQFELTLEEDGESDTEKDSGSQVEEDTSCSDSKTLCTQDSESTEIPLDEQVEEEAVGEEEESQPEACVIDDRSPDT

binding	Substance
binds	PDE4C2, endogenous long PDE4C isoform (from UniProt Q08493-2 1-606) (enzyme)
binds	PDE4D9, endogenous long PDE4D isoform (from UniProt Q08499-10 1-679) (enzyme)
binds	PDE4B1, endogenous long PDE4B isoform (from UniProt Q07343-1 1-736) (enzyme)

Source: article PMC5290487
